Source: US12055553B2, “Method for diagnosing risk for inflammatory disease through glycan profiling” (The Regents of the University of California, priority 2017, dated 2024)
At least one structure is not confirmed: it was looked up by name or label, or the drawing left a doubt. Some of these results come from one statement about several compounds together.

Tests used:
Caco-2 cells = assay type: cell-based
Protocol: (§1) We examined whether supplementation of free monosacchaides derived from diet changes N-glycosylation outcomes on the intestinal cell-surface at concentrations relevant to physiological conditions. Changes in glycosylation were assessed by globally releasing glycans from membrane proteins extracted from fully differentiated (Caco-2) and partially differentiated (HT-29) intestinal epithelial cells and analyzing the mixture by porous graphitized carbon (PGC)-LC-MS. […] The glycan profile under normal growth conditions was used as a frame of reference with which to compare the glycome at varied environments.
Human colorectal adenocarcinoma Caco-2 cells derived from a person, were obtained from American Type Culture Collection (ATCC, VA) and grown in Eagle's Minimum Essential Medium (EMEM) supplemented with non-essential amino acids, 2 mM L-glutamine, 10% (v/v) fetal bovine serum (Life Technologies, NY), 1 mM sodium pyruvate, 1.5 g/L sodium bicarbonate, 100 U/mL penicillin, and 100 μg/mL streptomycin. Alternatively, Caco-2 cells were grown in Dulbecco's Modified Eagle's Medium (DMEM) supplemented with 10% (v/v) fetal bovine serum, 100 U/mL penicillin, and 100 μg/mL streptomycin. Human colorectal adenocarcinoma HT-29 cells, derived from a person, were obtained from ATCC and grown in McCoy's 5A medium supplemented with 10% (v/v) fetal bovine serum, 100 U/mL penicillin, and 100 μg/mL streptomycin. Cells were subcultured at 80% confluency and maintained at 37° C. in a humidified incubator with 5% CO=2. All treatments were added to the media after cell differentiation. Caco-2 cells were fully differentiated 14-days post-confluency. HT-29 cells were partially differentiated 4-days post-confluency. After 72 h, cells were collected in biological triplicates by scraping A fixed count of 2×10^6 viable cells was used for each experiment Passage number between experiments was controlled to no higher than P40 and a delta P of no more than 20. […] Monolayer integrity and quality of cell borders were evaluated under the microscope routinely during growth and before harvest. […]

HT-29 cells = assay: Cell surface N-glycan profiling (PGC-LC-MS) of HT-29 after supplementation; assay type: cell-based, Human; details: HT-29, butyrate 10 mM, 72 h
Protocol: as §1
Human colorectal adenocarcinoma Caco-2 cells derived from a person, were obtained from American Type Culture Collection (ATCC, VA) and grown in Eagle's Minimum Essential Medium (EMEM) supplemented with non-essential amino acids, 2 mM L-glutamine, 10% (v/v) fetal bovine serum (Life Technologies, NY), 1 mM sodium pyruvate, 1.5 g/L sodium bicarbonate, 100 U/mL penicillin, and 100 μg/mL streptomycin. Alternatively, Caco-2 cells were grown in Dulbecco's Modified Eagle's Medium (DMEM) supplemented with 10% (v/v) fetal bovine serum, 100 U/mL penicillin, and 100 μg/mL streptomycin. […] Monolayer integrity and quality of cell borders were evaluated under the microscope routinely during growth and before harvest. […]

Structure (SMILES)	fold expression changes of mono- or non-fucosylated sialylated structures (Caco-2 cells; Caco-2, media acidified to pH 4.5-4.6 vs neutral pH)	change in di- and trisialylated glycans (HT-29 cells)	change in sialylated glycans (Caco-2 cells; Caco-2, 72 h, fucose 25 mM, Ac5-Sia up to 10 mM, butyrate 10 mM, glutamine 10 mM)	change in fucosylated glycans / fucosylation (Caco-2 cells; Caco-2, 72 h, fucose 25 mM, acetate, lactate, butyrate 10 mM, glutamine 10 mM)
CC(=O)N[C@H]1[C@H]([C@H](O)[C@H](O)CO)OC(O)(C(=O)O)C[C@@H]1O (stereo partly shown) [sialic acid]	greater than 3 fold	–	–	–
CCCC(=O)O [butyrate]	–	decreased considerably	opposed those produced by acetate and lactate	significant increase
